Measurements reported in PubChem BioAssay AID1508588 (Peter MacCallum Cancer Centre, 2020)

Assay: 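Which gene losses make BRAF-mutant melanoma cells more responsive to vemurafenib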 (primary screen)
Cell system: human WM266.4 melanoma cells (BRAF V600 mutant)
Reagents: siRNA pool against human genes, 40 nM
Time to read-out: 96 h from transfection to read-out
Treatment: vemurafenib 300 nM (about IC25), added 48 h after transfection, for 48 h; comparison arm got DMSO vehicle only
Measurement: 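Cell gain (DAPI nuclei at end minus before drug, mean of two replicates) and medium lactate by absorbance per cell, both as ratio to non-targeting siRNA, also grouped into fold-change classes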
Scale: cell gain with vemurafenib: higher = more cell gain than with non-targeting siRNA; lactate per cell with vemurafenib: higher = more lactate made per cell
Active means: 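a knock-down counts as enhancing when its fold-change classes with vehicle and with vemurafenib, taken together, show a stronger drug effect on cell gain or lactate per cell; exact class pairs not stated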
Meaning of the calls: active = enhances vemurafenib effect; inactive = no enhancement seen
Here is a random part of about 18,000 deposited reagents. Over the whole deposit, 790 (4.4%) are marked active. 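Calls rest on a combination of fold-change classes in drug and vehicle arms, not all shown here.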 Unmarked entries are inactive. Some reagents were tested in more than one well and are listed for each. No sequences are given here.

no.	target gene	cell gain with vemurafenib	lactate per cell with vemurafenib
1	SRSF8	1.11	0.97
2	TMEM187	0.58	1.15
3	DENND5B	0.49	1.4
4	ERCC3	0.82	0.63
5	CFAP298	0.48	0.42
6	PARP6	0.35	0.9
7	HEPACAM	0.36	0.94
8	DMXL1	1	1.09
9	KRTAP15-1	0.11 (active)	0.67
10	TSSK1B	0.82	1.07
11	TSSK1B	0.53	1.05
12	TRUB2	0.73	0.31
13	ZNF462	0.2	3
14	ZNF382	0.33	1.8
15	CSNK1G2-AS1	0.84	0.77
16	NLN	0.55	0.62
17	STK32B	0.58	1.23
18	DEFB136	0.37	0.62
19	UCHL5	0.41	0.66
20	ABR	0.32	1.17
21	CLDN23	0.42	1.75
22	ZNF789	0.53	0.26
23	ZSWIM8	0.56	1.16
24	METTL21A	0.49	1.36
25	DUSP12	0.77	0.28
26	ZNF713	0.34	0.61
27	LILRA1	0.02	1.23
28	CIAPIN1	0.48	1.26
29	POTEA	1.16	0.83
30	TMEM232	1.24	0.74
31	ZIC2	1.02	0.88
32	LILRA4	0.81	0.66
33	CKS1B	0.62	0.48
34	GPR149	1.15	0.9
35	ST8SIA4	0.72	0.96
36	FRAS1	0.32	1.68
37	POLR2C	0.02	1.53
38	NCLN	0.43	1.27
39	ACY3	0.55	0.94
40	RRP15	0.42	0.75
41	OR2G3	0.65	0.73
42	CRISP2	0.15	1.12
43	BLTP3B	0.61	0.84
44	TMEM225	1.21	0.57
45	FUNDC1	1.09	0.76
46	RCE1	1.21	1.12
47	CTPS1	0.71	0.98
48	MPO	0.68	0.7
49	GIGYF2	-0.01	2.3
50	SKI	0.83	2.04
51	NPAP1	0.47	0.85
52	MED10	0.73	0.72
53	RAPSN	0.98	0.91
54	WDR20	0.63	0.31
55	ASB17	0.84	1
56	PI3	0.26	1.02
57	GPATCH4	0.38	1.34
58	MAP2K2	0.95	0.32
59	PCDH11Y	0.99	0.62
60	HCFC1R1	0.47	0.88
61	FPGT	0.89	1.16
62	BTNL3	0.62	0.67
63	CYP3A5	0.46	0.68
64	PRSS38	0.6	0.64
65	KRTAP10-10	-0.12 (active)	-0.34
66	TBC1D16	0.8	0.66
67	CHL1	0.69	0.99
68	TRH	0.55	1.11
69	PAX2	0.71	0.66
70	SPATA45	0.39	1.79
71	CACNA2D4	0.03	1.45
72	TPTE	0.8	0.8
73	TPTE	0.69	1.12
74	DPY19L2	0.51	1.36
75	GSTM5	0.52	0.29
76	RRP36	0.43	0.28
77	HBE1	0.68	0.86
78	DNAJC30	-0.09	2.21
79	MCF2L	0.16	1.11
80	PELI2	0.94	0.83
81	LINS1	0.78	0.8
82	MAX	0.8	0.67
83	LGI2	0.25	1.33
84	KRT8	0.5	1.23

13 entries from above, limited to “cell gain with vemurafenib”.
RAPSN: 0.98
WDR20: 0.63
ASB17: 0.84
PI3: 0.26
GPATCH4: 0.38
MAP2K2: 0.95
PCDH11Y: 0.99
HCFC1R1: 0.47
FPGT: 0.89
BTNL3: 0.62
CYP3A5: 0.46
PRSS38: 0.6
KRTAP10-10: -0.12 (active)
